Laboratory results: PubChem BioAssay AID1508597 (Cure First, 2020)

Assay: 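Survival screen with siRNA in ovarian cancer cells derived from patients, with or without rucaparib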 (primary screen)
Cells: human ovarian carcinoma lines grown from tumours: OCI-P5x (papillary serous) and OCI-C5x (clear cell)
Knock-down reagent: siRNA pool against human genes, 1.25 pmol siRNA per well
Duration: 72 h or 96 h, depending on the cell culture
Conditions: rucaparib 20 µM (about IC30) or vehicle, present until read-out
Rucaparib or vehicle: Vehicle
Cell line: OCI-C5x (clear cell)
Measurement: 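ATP luminescence measured at 72 or 96 h according to the culture, then normalised and expressed as percent viability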
Direction: viability, normalised: higher = more viable cells remaining
Call rule: 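a well counts as a hit if its normalised viability is under 80 percent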
Meaning of the calls: active = viability under 80%; inactive = viability 80% or more
Shown is an unselected part of the about 2,100 reagents, in one setting of the screen. 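Calls flag viability under 80% in either arm, not effects specific to rucaparib; the reference for percent is not stated.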 Entries without a mark were called inactive. Some reagents were tested in more than one well and are listed for each. The record does not give: the 100% reference.

no.	gene	technical replicate	viability, normalised (%)
1	PRDM15	1	43.4 (active)
2	PRDM15	2	47.2 (active)
3	PRDM15	3	35.2 (active)
4	ADGRA3	1	50.9 (active)
5	ADGRA3	2	51.2 (active)
6	ADGRA3	3	48.8 (active)
7	NSD3	1	18.6 (active)
8	NSD3	2	20 (active)
9	NSD3	3	14.1 (active)
10	KMT5C	1	71.8 (active)
11	KMT5C	2	78.9 (active)
12	KMT5C	3	38.4 (active)
13	PGGT1B	1	38.7 (active)
14	PGGT1B	2	39.9 (active)
15	PGGT1B	3	48.5 (active)
16	MYPOP	1	39.9 (active)
17	MYPOP	2	25.5 (active)
18	MYPOP	3	27.5 (active)
19	OXSM	1	59.8 (active)
20	OXSM	2	49.7 (active)
21	OXSM	3	58.7 (active)
22	DHX34	1	44.7 (active)
23	DHX34	2	45.4 (active)
24	DHX34	3	38.7 (active)
25	SCYL3	1	64.1 (active)
26	SCYL3	2	69.1 (active)
27	SCYL3	3	57.5 (active)
28	SMARCD1	1	49 (active)
29	SMARCD1	2	50.8 (active)
30	SMARCD1	3	61.7 (active)
31	HHEX	1	91.9
32	HHEX	2	54.4 (active)
33	HHEX	3	92.9
34	ING1	1	60.1 (active)
35	ING1	2	64.5 (active)
36	ING1	3	43.5 (active)
37	MAPK14	1	44.2 (active)
38	MAPK14	2	47.6 (active)
39	MAPK14	3	68.3 (active)
40	PRMT2	1	55.5 (active)
41	PRMT2	2	46 (active)
42	PRMT2	3	54.2 (active)

Continued, starting with the last 2 of the part before.
no.	gene	technical replicate	viability, normalised (%)
41	PRMT2	2	46 (active)
42	PRMT2	3	54.2 (active)
43	ASCC3	1	35.4 (active)
44	ASCC3	2	41.3 (active)
45	ASCC3	3	45.3 (active)
46	ING4	1	43.1 (active)
47	ING4	2	41.6 (active)
48	ING4	3	82.8
49	PER1	1	53.1 (active)
50	PER1	1	47.8 (active)
51	PER1	2	32.1 (active)
52	PER1	2	45 (active)
53	PER1	3	37.4 (active)
54	PER1	3	54.7 (active)
55	SIRT3	1	30.2 (active)
56	SIRT3	2	29.4 (active)
57	SIRT3	3	45.7 (active)
58	WNK4	1	61.7 (active)
59	WNK4	2	60.1 (active)
60	WNK4	3	60.1 (active)
61	COQ8B	1	37.1 (active)
62	COQ8B	2	40.1 (active)
63	COQ8B	3	35.2 (active)
64	STING1	1	55.4 (active)
65	STING1	2	46.3 (active)
66	STING1	3	53.9 (active)
67	ASH2L	1	58.7 (active)
68	ASH2L	2	54.1 (active)
69	ASH2L	3	61.4 (active)
70	SMYD2	1	36.1 (active)
71	SMYD2	2	36 (active)
72	SMYD2	3	30.2 (active)
73	CARD14	1	47.5 (active)
74	CARD14	2	45 (active)
75	CARD14	3	34.8 (active)
